No constants are given. Whether binding was seen depends on the method and setting. Some binding calls cover weakened binding; strength is not graded here.
T1: human OX40 (human, UniProt P43489 29-277)
T1 construct: whole, on cells; The construct used for transfection is not described; also called hOX40; OX40 receptor
T1 sequence (looked up): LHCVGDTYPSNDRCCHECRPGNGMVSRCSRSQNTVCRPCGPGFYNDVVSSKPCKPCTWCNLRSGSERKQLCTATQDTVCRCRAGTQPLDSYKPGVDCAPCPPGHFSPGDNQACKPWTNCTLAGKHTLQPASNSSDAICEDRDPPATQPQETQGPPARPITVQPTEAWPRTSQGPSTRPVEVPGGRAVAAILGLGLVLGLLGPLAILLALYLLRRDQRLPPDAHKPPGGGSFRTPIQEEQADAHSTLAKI


Tests used:
human OX40 [1] = molecular target: T1, human OX40; experiment: FACS binding assay on L/OX40 cells, PE goat anti-human IgG
human OX40 [2] = molecular target: T1, human OX40; experiment: cell ELISA, hybridoma supernatants on dried L-hOX40 cells vs parental L cells
human OX40 [3] = molecular target: T1, human OX40; experiment: flow cytometry, mixed L and L-hOX40 cells, 0.5 µg purified antibody, PE anti-mouse IgG
human OX40 [4] = molecular target: T1, human OX40; experiment: flow cytometry, mixed SUPM2 and SUPM2-hOX40 cells
human OX40 [5] = molecular target: T1, human OX40; experiment: FACS binding assay on L/hOX40 cells, PE goat anti-mouse IgG
human OX40 [6] = molecular target: T1, human OX40; experiment: FACS binding assay on L/hOX40 cells, PE goat anti-human IgG
human OX40 [7] = molecular target: T1, human OX40; experiment: FACS binding assay on L/hOX40 cells

| binding (human OX40 [1]) | binding (human OX40 [2]) | binding (human OX40 [3]) | binding (human OX40 [4]) | binding (human OX40 [6]) | Binder | also measured |
| --- | --- | --- | --- | --- | --- | --- |
| binds | – | – | – | – | Humanized 119-122 IgG1/kappa monoclonal antibody (antibody, V domains shown) VH: EVQLVESGGGLVQPGGSLRLSCAASEYEFPSHDMSWVRQAPGKGLELVAAINSDGGSTYYPDTMERRFTISRDNAKNSLYLQMNSLRAEDTAVYYCARHYDDYYAWFAYWGQGTMVTVSS VL: EIVLTQSPATLSLSPGERATLSCRASKSVSTSGYSYMHWYQQKPGQAPRLLIYLASNLESGVPARFSGSGSGTDFTLTISSLEPEDFAVYYCQHSRELPLTFGGGTKVEIK | – |
| – | binds | binds | binds | – | mouse 119-122 (antibody, V domains shown) VH: EVQLVESGGGLVQPGESLKLSCESNEYEFPSHDMSWVRKTPEKRLELVAAINSDGGSTYYPDTMERRFIISRDNTKKTLYLQMSSLRSEDTALYYCARHYDDYYAWFAYWGQGTLVTVSA VL: DIVLTQSPASLAVSLGQRATISCRASKSVSTSGYSYMHWYQQKPGQPPKLLIYLASNLESGVPARFSGSGSGTDFTLNIHPVEEEDAATYYCQHSRELPLTFGAGTKLELK | – |
| – | binds | binds | binds | – | mouse 106-222 (antibody, V domains shown) VH: QIQLVQSGPELKKPGETVKISCKASGYTFTDYSMHWVKQAPGKGLKWMGWINTETGEPTYADDFKGRFAFSLETSASTAYLQINNLKNEDTATYFCANPYYDYVSYYAMDYWGHGTSVTVSS VL: DIVMTQSHKFMSTSVRDRVSITCKASQDVSTAVAWYQQKPGQSPKLLIYSASYLYTGVPDRFTGSGSGTDFTFTISSVQAEDLAVYYCQQHYSTPRTFGGGTKLEIK | binding (human OX40 [5]): binds |

Second part, the binder before the results:

| Binder | binding (human OX40 [1]) | binding (human OX40 [2]) | binding (human OX40 [3]) | binding (human OX40 [4]) | binding (human OX40 [6]) | also measured |
| --- | --- | --- | --- | --- | --- | --- |
| Chimeric 119-122 IgG1/kappa monoclonal antibody (antibody, V domains shown) VH: EVQLVESGGGLVQPGESLKLSCESNEYEFPSHDMSWVRKTPEKRLELVAAINSDGGSTYYPDTMERRFIISRDNTKKTLYLQMSSLRSEDTALYYCARHYDDYYAWFAYWGQGTLVTVSA VL: DIVLTQSPASLAVSLGQRATISCRASKSVSTSGYSYMHWYQQKPGQPPKLLIYLASNLESGVPARFSGSGSGTDFTLNIHPVEEEDAATYYCQHSRELPLTFGAGTKLELK | binds | – | – | – | – | – |
| Chimeric 106-222 IgG1/kappa monoclonal antibody (antibody, V domains shown) VH: QIQLVQSGPELKKPGETVKISCKASGYTFTDYSMHWVKQAPGKGLKWMGWINTETGEPTYADDFKGRFAFSLETSASTAYLQINNLKNEDTATYFCANPYYDYVSYYAMDYWGHGTSVTVSS VL: DIVMTQSHKFMSTSVRDRVSITCKASQDVSTAVAWYQQKPGQSPKLLIYSASYLYTGVPDRFTGSGSGTDFTFTISSVQAEDLAVYYCQQHYSTPRTFGGGTKLEIK | – | – | – | – | binds | – |
| Humanized 106-222 IgG1/kappa monoclonal antibody (antibody, V domains shown) VH: QVQLVQSGSELKKPGASVKVSCKASGYTFTDYSMHWVRQAPGQGLKWMGWINTETGEPTYADDFKGRFVFSLDTSVSTAYLQISSLKAEDTAVYYCANPYYDYVSYYAMDYWGQGTTVTVSS VL: DIQMTQSPSSLSASVGDRVTITCKASQDVSTAVAWYQQKPGKAPKLLIYSASYLYTGVPSRFSGSGSGTDFTFTISSLQPEDIATYYCQQHYSTPRTFGQGTKLEIK | – | – | – | – | binds | binding (human OX40 [7]): binds |
